# Primary screen of a compound library

Sequences of proteins named here, by UniProt entry; tags and fusion partners are left off. Residues count along the entry.
UniProt I6X8D2, whole entry: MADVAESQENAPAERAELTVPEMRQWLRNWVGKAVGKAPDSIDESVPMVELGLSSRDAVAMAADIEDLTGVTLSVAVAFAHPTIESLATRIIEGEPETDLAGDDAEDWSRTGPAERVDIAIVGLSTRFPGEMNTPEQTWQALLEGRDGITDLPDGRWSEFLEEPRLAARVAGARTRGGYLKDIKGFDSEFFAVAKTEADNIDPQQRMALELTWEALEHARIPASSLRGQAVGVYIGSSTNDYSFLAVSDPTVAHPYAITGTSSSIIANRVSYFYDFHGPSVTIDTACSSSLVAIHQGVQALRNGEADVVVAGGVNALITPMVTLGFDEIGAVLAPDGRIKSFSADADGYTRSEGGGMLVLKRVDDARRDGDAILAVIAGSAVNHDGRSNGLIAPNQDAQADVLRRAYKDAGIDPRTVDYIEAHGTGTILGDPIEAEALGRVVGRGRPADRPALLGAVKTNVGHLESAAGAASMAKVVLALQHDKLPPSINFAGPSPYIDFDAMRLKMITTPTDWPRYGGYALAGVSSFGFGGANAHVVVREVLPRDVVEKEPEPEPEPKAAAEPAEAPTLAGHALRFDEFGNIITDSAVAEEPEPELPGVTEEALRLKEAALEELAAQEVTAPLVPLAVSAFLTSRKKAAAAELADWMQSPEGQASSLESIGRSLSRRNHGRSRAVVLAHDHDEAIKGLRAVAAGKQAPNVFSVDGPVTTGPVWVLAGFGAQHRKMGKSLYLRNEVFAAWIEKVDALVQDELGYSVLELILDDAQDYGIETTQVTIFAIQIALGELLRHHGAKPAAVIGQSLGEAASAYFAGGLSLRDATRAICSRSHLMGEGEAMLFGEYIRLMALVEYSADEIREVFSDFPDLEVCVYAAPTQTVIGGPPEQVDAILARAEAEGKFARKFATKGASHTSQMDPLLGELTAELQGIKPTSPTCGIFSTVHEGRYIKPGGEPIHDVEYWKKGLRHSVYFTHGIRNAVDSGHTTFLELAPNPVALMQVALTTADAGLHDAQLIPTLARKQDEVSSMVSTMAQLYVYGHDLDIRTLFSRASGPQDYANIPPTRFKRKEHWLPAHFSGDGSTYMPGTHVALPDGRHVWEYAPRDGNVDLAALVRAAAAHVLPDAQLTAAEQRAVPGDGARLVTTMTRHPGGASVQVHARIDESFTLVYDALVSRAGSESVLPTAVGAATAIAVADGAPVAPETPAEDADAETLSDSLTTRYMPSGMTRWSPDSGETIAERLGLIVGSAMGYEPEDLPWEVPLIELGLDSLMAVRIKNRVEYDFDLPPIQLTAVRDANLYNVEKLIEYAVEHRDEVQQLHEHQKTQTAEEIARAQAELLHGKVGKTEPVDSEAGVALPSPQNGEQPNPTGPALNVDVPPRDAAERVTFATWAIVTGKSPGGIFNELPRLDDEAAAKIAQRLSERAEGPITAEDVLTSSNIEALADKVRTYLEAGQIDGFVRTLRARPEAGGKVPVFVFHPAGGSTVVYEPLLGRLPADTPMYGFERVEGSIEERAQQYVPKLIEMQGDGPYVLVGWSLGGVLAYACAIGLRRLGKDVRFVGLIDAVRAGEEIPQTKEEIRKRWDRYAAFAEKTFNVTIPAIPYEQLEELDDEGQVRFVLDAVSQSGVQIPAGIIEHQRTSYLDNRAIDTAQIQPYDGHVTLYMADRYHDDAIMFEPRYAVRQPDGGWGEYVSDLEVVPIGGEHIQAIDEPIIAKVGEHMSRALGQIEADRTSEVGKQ
UniProt A4I591, 1-473: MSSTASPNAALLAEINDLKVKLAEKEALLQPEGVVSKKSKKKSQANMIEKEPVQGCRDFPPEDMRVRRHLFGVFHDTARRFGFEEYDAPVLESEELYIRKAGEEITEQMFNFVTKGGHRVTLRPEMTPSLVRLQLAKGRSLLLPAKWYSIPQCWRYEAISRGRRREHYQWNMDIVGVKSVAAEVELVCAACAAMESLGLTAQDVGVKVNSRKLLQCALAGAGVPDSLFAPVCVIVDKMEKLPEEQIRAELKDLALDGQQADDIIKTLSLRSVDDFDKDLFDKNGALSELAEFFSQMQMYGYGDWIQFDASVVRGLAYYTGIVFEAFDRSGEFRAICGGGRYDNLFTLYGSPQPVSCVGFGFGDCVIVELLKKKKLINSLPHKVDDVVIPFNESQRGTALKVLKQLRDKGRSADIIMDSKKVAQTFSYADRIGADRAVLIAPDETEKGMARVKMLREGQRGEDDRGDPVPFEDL

Leishmania in macrophages: 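Cell assay of Leishmania donovani living inside macrophages; the read-out is not stated. Concentration: 30 µM. Direction is inferred from retests: higher values go with stronger inhibition. Size under these conditions: about 69,000 compounds, about 1,000 of them at 50% or above in at least one test.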
Pks13 thioesterase: 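Polyketide synthase Pks13, Mycobacterium tuberculosis (UniProt I6X8D2). Enzyme assay of the thioesterase domain of polyketide synthase 13; the read-out is not stated. Compounds at 30 µM. The record gives no direction; the compounds picked for IC50 retests had high values, so higher reads as stronger inhibition. Of about 67,000 compounds tested this way, about 300 (0.46%) reached 50% or more in at least one test.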
LiHisRS: 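Histidine-tRNA ligase, Leishmania infantum (UniProt A4I591). Enzyme assay of histidyl-tRNA synthetase; the read-out is not stated. Concentration: 30 µM. The record gives no direction; compounds that gave an IC50 in retests scored well above the rest, so higher reads as stronger inhibition. The assay is labelled LdHisRS but filed under L. infantum. About 69,000 compounds were tested under these conditions; 0.6% (about 410) showed 50% or more at least once.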

The filed quantity is “Percent Effect” (%).
The controls that fix the scale are not given in the record; negative values are as filed.
This is an unselected part of the compounds tested.
Two or more numbers in one place are separate tests of the same structure; such repeats can differ widely.
A dash means the value is not listed here; it may have been measured.

compound,Leishmania in macrophages,Pks13 thioesterase,LiHisRS
O=C(CCN1C[C@H]2CC[C@@H]1CN(c1ncccn1)C2)NCc1ccco1,-,-16.14%,1.695%
O=C(O)C(F)(F)F.[H][C@]12CCN(CCOC)[C@@]1([H])CC[C@@H](COCc1csc(C)n1)O2,19.93%,-,-
CC(C)C(=O)NCc1cccc(N2CCCCC2=O)c1,11.87%,-7.984%,16%
CSCc1cc(F)ccc1CNCc1ccncc1,18.43%,-32.93%,21.43%
[H][C@]12CCCCN1CCC[C@H]2CCC(=O)N1Cc2nc(C)[nH]c(=O)c2C1,12.18%,-,-
CC(=O)N1CCOC(c2ccnc(N(C)C)n2)C1 (stereo not shown),-36.49%,-9.111%,-10.74%
Cc1cccc(CN2CC[C@@H]3[C@@H]2CCN3Cc2cccs2)n1,-,-19.88%,11.88%
CCCNCc1ccc(OCc2ccc3c(c2)OCCO3)cc1.Cl,67.66%,-,-
[H][C@@]12CS(=O)(=O)C[C@]1([H])N(C(=O)Cc1ccc(F)c(C)c1)CCN2C,22.12%,-,-
CCn1cnnc1CNC(=O)N1CCN(c2nc(C)c(C)s2)CC1,25.08%,-9.912%,13.7%
O=C(c1ccc(S(=O)(=O)NCc2ccon2)cc1)N1CCNCC1,20.65%,-13.05%,13.11%
Cc1cc(NC(=O)CCCn2ccnc2C)nc(C(C)C)n1,4.64%,-14.8%,15.15%
Cc1n[nH]c(C)c1CC(=O)N1CC[C@@](C)(O)[C@@H](Cc2ccccc2)C1,13.93%,-1.777%,17.02%
CC(C)OCC(=O)N1CCCN(Cc2ccc(C#N)cc2)CC1,21.07%,-1.858%,28%
c1cnn(CC2CN(c3ncnc4sccc34)CCO2)c1 (stereo not shown),57.28%,0.6482%,26.92%
Cc1cc(F)cc(S(=O)(=O)Nc2noc(C)n2)c1,8.713%,-23.73%,13.98%
Cc1ccc(N2CC3(CCN(Cc4nccn4C)C3)CC2=O)s1.O=C(O)C(F)(F)F (stereo not shown),55.03%,-,-
CN1CCC(N2CCN(C(C(=O)O)c3cccc4c3OCC4)CC2)CC1 (stereo not shown),12.7%,-19.26%,20%
CC1(C)CN(C(=O)CC2CCC2)C[C@]1(C)O,15.02%,-10.97%,6.667%
Cc1cnn(CC2CCCN2C(=O)Cc2cccs2)c1 (stereo not shown),20.36%,-20.74%,0.8696%
CO[C@@H]1CCN(Cc2ccoc2)[C@H]1Cc1ccccc1.O=C(O)C(F)(F)F,21.56%,-,-
CC(C)CN1CCC(N2CCC(C(=O)N(C)C)CC2)CC1.O=C(O)C(F)(F)F.O=C(O)C(F)(F)F,0.388%,-,-
N#Cc1c(F)cccc1Nc1cnn(CC(O)CN2CCOCC2)c1 (stereo not shown),-11.86%,15.86%,22.22%
O=C(c1ccc(-n2ccnc2)nc1)N1CCN2CCCCC2C1 (stereo not shown),36.32%,-21.41%,15.38%
NC(=O)c1cccc(CN2CCc3c(ncn3C3CC3)C2)c1,-2.255%,-37.38%,9.174%
O=C(O)COCC(=O)NC1CC2(CCCCC2)Oc2ccccc21 (stereo not shown),-7.738% & 21.88%,-13.18%,1.053%
O[C@H]1[C@H](n2cc(-c3ccccc3)nn2)c2ccccc2C12CCNCC2,6.72%,-14.31%,8.654%
Cc1nn(C)c(N(C)C)c1CNCc1cccc(Cl)c1,17.39%,-14.77%,11.48%
Cc1nn(C)c2c(NCCCn3cccn3)nc(C3CC3)nc12,-20.81%,-12.93%,17.24%
COc1ccccc1CN1CC[C@H]2[C@@H](C1)[C@H](c1ccsc1)CN2C(C)=O,-,-29.93%,5.714%
CCc1nnc(N2CCN(CCc3ccccc3)C(=O)C2)o1,-23.01%,3.781%,5%
CN(CCn1ccc2ccccc21)C(=O)Cc1nnn[nH]1,0.04773%,8.422%,32.88%
CC(C)(C)c1cnc(CN2CCCC2Cn2cccn2)o1 (stereo not shown),3.538%,-32.46%,3.371%
CCN1CCOC(CNCc2ccc(C)s2)C1 (stereo not shown),29.29%,-2.599%,2.041%
Cc1ccc(S(=O)(=O)NCc2[nH]ncc2Br)cc1F,-54.48%,-24.43%,16.44%
CC(C)(C)CC(=O)N1CCC(c2nn(CCN)c3nccnc23)C1 (stereo not shown),-5.476%,9.927%,-6%
COc1ccc(C(CC(=O)O)NC(=O)c2cc(C)on2)cc1 (stereo not shown),14.64%,-20.56%,-69.89%
Cc1nc(CN2CCc3ncnc(-c4ccc(F)cc4)c3CC2)cs1,-,-29.17%,18.05%
COCCNC(=O)NC(c1ccccc1)c1ccccc1OC (stereo not shown),11.19%,-0.1285%,14%
O=C1C[C@H]2[C@H](CCN2Cc2ccccn2)N1CC1CC1,-,-0.6485%,14.63%
CC(O)CN(C)c1cc(C(F)(F)F)nc(-c2cccnc2)n1 (stereo not shown),5.707%,-7.355%,18.75%
COc1ccc(C(CNC(=O)c2cnc(C)cn2)N2CCOCC2)cc1 (stereo not shown),45.96%,-,17.81%
Cc1c(Cl)cccc1S(=O)(=O)N1CCC(S(=O)(=O)c2nncn2C)CC1,-0.4401% & 19.15%,10.66%,10.26%
O=C(NCCn1cccn1)C1CCC(=O)N(CC2CCCCC2)C1 (stereo not shown),-51.99%,-0.02378%,0.8%
CN(C)C(=O)Cc1ccc(-c2cccc3c2CCNC3)cc1,27.21%,-24.47%,21.74%
[H][C@@]12CCCCN(C)[C@]1([H])[C@@H](c1ccccc1)CCN2C(=O)c1snnc1C,-1.407%,-,-
COC(=O)c1cccc(C(=O)N(C)Cc2cccc(F)c2)c1,22.1%,0.4398%,16.33%
Cl.Cl.Cl.c1cnc(NCc2cncc3c2CCN(Cc2cccnc2)C3)nc1,6.096%,-,-
COc1cccc(CNC(C)c2ccc(-n3ccnc3)cc2)c1OC (stereo not shown),-,-20.43%,14.89%
COc1cc(C(=O)N(CCC#N)Cc2ccccn2)cc(OC)c1C,26.91%,-12.15%,8.738%
CCOC(=O)N1CCN(C(=O)c2snnc2-c2ccccc2)CC1,-4.717%,4.105%,1.099%
Cc1ncc(CN(C)C(=O)Nc2cccc(CN3CCOC3=O)c2)s1,7.77%,-41.56%,25.71%
O=C(NCC(F)(F)F)NC1CCCc2c1cnn2CCO (stereo not shown),26.48%,-10.57%,20.39%
CCOc1ncccc1C(=O)N1CCCC(n2nc(C)nc2C)C1 (stereo not shown),9.297%,-15.31%,16.53%

The first 4 entries again:

| compound | Leishmania in macrophages | Pks13 thioesterase | LiHisRS |
|---|---|---|---|
| `O=C(CCN1C[C@H]2CC[C@@H]1CN(c1ncccn1)C2)NCc1ccco1` | - | -16.14% | 1.695% |
| `O=C(O)C(F)(F)F.[H][C@]12CCN(CCOC)[C@@]1([H])CC[C@@H](COCc1csc(C)n1)O2` | 19.93% | - | - |
| `CC(C)C(=O)NCc1cccc(N2CCCCC2=O)c1` | 11.87% | -7.984% | 16% |
| `CSCc1cc(F)ccc1CNCc1ccncc1` | 18.43% | -32.93% | 21.43% |

The values are deposited in ChEMBL (CHEMBL3988442, “University of Dundee, Small-Polar-MMV Screening Library” (2021)).